## Screening data

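A panel of P. falciparum strains inside erythrocytes is exposed to compounds for three days, then a DNA-binding dye reports the amount of parasite DNA. Each compound was titrated across a series from about 0.000037 to 29 µM. The number is the fitted AC50, the concentration giving a half-maximal change in signal; a lower value means higher potency, whether the curve shows a decrease or an increase. Calls follow the curve class and fit quality: every row here is inconclusive, covering signal-raising curves and weak, poorly fitted, partial or highest-dose-only inhibition curves.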

Values are in µM. Every entry below has the call inconclusive. These entries are mostly ones the record files as inconclusive; other results of the assay are not listed here. Potencies fitted to partial, single-point or poorly fitting curves are rough.

| SMILES | tested on / at | potency (µM) | curve as filed |
|---|---|---|---|
| `O=[N+]([O-])c1ccc(O)c2ncccc12` | TAB113 | 11.22 | inhibitor, single point |
| `O=[N+]([O-])c1ccc(O)c2ncccc12` | CP329 | 15.1 | inhibitor, single point |
| `O=[N+]([O-])c1ccc(O)c2ncccc12` | CP297 | 19.01 | inhibitor, single point |
| `O=[N+]([O-])c1ccc(O)c2ncccc12` | CP203 | 16.94 | inhibitor, single point |
| `O=[N+]([O-])c1ccc(O)c2ncccc12` | ATS95 | 17.78 | inhibitor, single point |
| `O=[N+]([O-])c1ccc(O)c2ncccc12` | CP266 | 16.94 | inhibitor, single point |
| `O=[N+]([O-])c1ccc(O)c2ncccc12` | CP215 | 13.46 | inhibitor, single point |
| `O=[N+]([O-])c1ccc(O)c2ncccc12` | JCK | 17.78 | inhibitor, single point |
| `O=[N+]([O-])c1ccc(O)c2ncccc12` | DFO2036 | 11.22 | inhibitor, single point |
| `O=[N+]([O-])c1ccc(O)c2ncccc12` | CP335 | 16.94 | inhibitor, single point |
| `O=[N+]([O-])c1ccc(O)c2ncccc12` | CP268 | 13.46 | inhibitor, single point |
| `O=[N+]([O-])c1ccc(O)c2ncccc12` | CP194 | 19.01 | inhibitor, single point |
| `O=[N+]([O-])c1ccc(O)c2ncccc12` | CP192 | 19.01 | inhibitor, single point |
| `O=[N+]([O-])c1ccc(O)c2ncccc12` | CP238 | 12.59 | inhibitor, single point |
| `O=[N+]([O-])c1ccc(O)c2ncccc12` | DIV17 | 16.94 | inhibitor, single point |
| `O=[N+]([O-])c1ccc(O)c2ncccc12` | CP325 | 19.01 | inhibitor, single point |
| `O=[N+]([O-])c1ccc(O)c2ncccc12` | CP305 | 19.01 | inhibitor, single point |
| `O=[N+]([O-])c1ccc(O)c2ncccc12` | ECU | 17.78 | inhibitor, single point |
| `O=[N+]([O-])c1ccc(O)c2ncccc12` | N140 | 17.78 | inhibitor, single point |
| `O=[N+]([O-])c1ccc(O)c2ncccc12` | CP256 | 10 | inhibitor, single point |
| `O=[N+]([O-])c1ccc(O)c2ncccc12` | CP237 | 12.59 | inhibitor, single point |
| `O=[N+]([O-])c1ccc(O)c2ncccc12` | CP250 | 12.59 | inhibitor, single point |
| `O=[N+]([O-])c1ccc(O)c2ncccc12` | CP211 | 12 | inhibitor, single point |
| `O=[N+]([O-])c1ccc(O)c2ncccc12` | CP185 | 11.22 | inhibitor, single point |
| `O=[N+]([O-])c1ccc(O)c2ncccc12` | CP286 | 11.22 | inhibitor, single point |
| `O=[N+]([O-])c1ccc(O)c2ncccc12` | AA1029 | 10 | inhibitor, single point |
| `O=[N+]([O-])c1ccc(O)c2ncccc12` | P93_24 | 11.22 | inhibitor, single point |
| `O=[N+]([O-])c1ccc(O)c2ncccc12` | CP260 | 14.13 | inhibitor, single point |
| `O=[N+]([O-])c1ccc(O)c2ncccc12` | SC27B | 11.22 | inhibitor, single point |
| `O=[N+]([O-])c1ccc(O)c2ncccc12` | CP265 | 17.78 | inhibitor, single point |
| `O=[N+]([O-])c1ccc(O)c2ncccc12` | FAB9 | 17.78 | inhibitor, single point |
| `O=[N+]([O-])c1ccc(O)c2ncccc12` | HB3 | 12.59 | inhibitor, single point |
| `O=[N+]([O-])c1ccc(O)c2ncccc12` | CP291 | 19.01 | inhibitor, single point |
| `O=[N+]([O-])c1ccc(O)c2ncccc12` | ATS189 | 17.78 | inhibitor, single point |
| `CCc1cccc(N(C)C(N)=Nc2cccc3ccccc23)c1` | N140 | 3.981 | inhibitor, partial curve |
| `CCc1cccc(N(C)C(N)=Nc2cccc3ccccc23)c1` | DFO2036 | 3.981 | inhibitor, partial curve |

Once more, the final 2:

CCc1cccc(N(C)C(N)=Nc2cccc3ccccc23)c1 [N140] read potency 3.981 µM (inhibitor, partial curve).
CCc1cccc(N(C)C(N)=Nc2cccc3ccccc23)c1 [DFO2036] read potency 3.981 µM (inhibitor, partial curve).

The results are deposited in PubChem (AID504749; NCATS, 2011).